At least one read-out could not be matched to a standard name with certainty.
Assay: aqueous solubility
Assay type: physicochemical
Conditions: salt vs free base

Fc1ccc2nc(CCC#Cc3ccccn3)cn2c1.O=P(O)(O)O [mono-phosphate salt, 6-fluoro-2-[4-(pyridin-2-yl)but-3-yn-1-yl]imidazo[1,2-a]pyridine mono-phosphate salt]
increase of the solubility of the mono-phosphate salt as compared to the free base: at least 40 times

Reference: US9938270B2, “Mono-phosphate salt of 6-fluoro-2-[4-(pyridin-2-yl)but-3-yn-1-yl]imidazo[1,2A]pyridine (dipraglurant) and polymorphs thereof as negative allosteric modulator of MGLU5 receptor” (Addex Pharma S.A., priority 2013, dated 2018)
